Results reported in PubChem BioAssay (NCATS).
Inconclusive means that the source gave no clear call. Such entries were picked first, then a sample of the others. Potencies beside an inconclusive call are fits to weak or partial responses and may not hold up. The source made the active and inactive calls. Calls follow the shape of the dose curve; as a rule, active = well fitted curve in the direction sought with a large enough effect; inconclusive = small, poorly fitted or top-dose-only effect, or another doubt; inactive = no such curve, though single readings can be large; an effect the other way counts as inactive or inconclusive.

Tests used:
[1] = Quantitative highthroughput screen to assess conditional lethalithy of NOMO1 cells grown in RPMI1640 with untreated serum (RPMI+s) (AID 1963876); conditions: NOMO1 AML cells in RPMI+serum, CellTiter-Glo viability, 48 h; viability: at 45.8 µM (top of the series); also: nearly all actives have a fitted effect of over 35% in size
How it was run: (§1)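 Each medium arm—HPLM with 10% dialyzed FBS, or RPMI1640 with 5 mM glucose and 10% untreated or dialyzed FBS—was screened against an 11-point, 3-fold compound titration for 48 h at 37 °C, with CellTiter-Glo luminescence as endpoint.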

[2] = Quantitative highthroughput screen to assess conditional lethalithy of NOMO1 cells grown in RPMI1640 with dialyzed fetal bovine serum (RPMI+ds) (AID 1963877); also: nearly all actives have a fitted effect of over 30% in size
How it was run: as §1

[3] = Quantitative highthroughput screen to assess conditional lethalithy of NOMO1 cells grown in Human Plasma-Like Medium with dialyzed fetal bovine serum (HPLM+ds) (AID 1963878); conditions: NOMO1 AML cells in HPLM+ds, CellTiter-Glo viability, 48 h; viability: at 45.8 µM (top of the series); also: nearly all actives have a fitted effect of over 35% in size
How it was run: as §1

[4] = Quantitative highthroughput screen to assess conditional lethalithy of P12 Ichikawa cells grown in RPMI1640 with dialyzed fetal bovine serum (RPMI+ds) (AID 1963880); conditions: Potency: P12-Ichikawa viability; also: nearly all actives have a fitted effect of over 35% in size
How it was run: as §1

[5] = Quantitative highthroughput screen to assess conditional lethalithy of P12 Ichikawa cells grown in RPMI1640 with untreated serum (RPMI+s) (AID 1963881); conditions: Potency: viability; also: nearly all actives have a fitted effect of over 35% in size
How it was run: as §1

[6] = Quantitative highthroughput screen to assess conditional lethalithy of SEM cells grown in Human Plasma-Like Medium with dialyzed fetal bovine serum (HPLM+ds) (AID 1963882); also: nearly all actives have a fitted effect of over 35% in size
How it was run: as §1

[7] = Quantitative highthroughput screen to assess conditional lethalithy of SEM cells grown in RPMI1640 with unreated serum (RPMI+s) (AID 1963883); conditions: SEM B-ALL cells, CellTiter-Glo viability, 48 h; viability: at 45.8 µM (top of the series); also: nearly all actives have a fitted effect of over 35% in size
How it was run: as §1

[8] = Quantitative highthroughput screen to assess conditional lethalithy of P12 Ichikawa cells grown in Human Plasma-Like Medium with dialyzed fetal bovine serum (HPLM+ds) (AID 1963879); conditions: Potency: viability; also: nearly all actives have a fitted effect of over 35% in size
How it was run: as §1

[9] = Quantitative highthroughput screen to assess conditional lethalithy of SEM cells grown in RPMI1640 with dialyzed fetal bovine serum (RPMI+ds) (AID 1963884); conditions: SEM B-ALL cells, RPMI+dialyzed FBS, CellTiter-Glo viability, 48 h; viability: at 45.8 µM (top of the series); also: nearly all actives have a fitted effect of over 35% in size
How it was run: as §1

[10] = Cellular viability qHTS for adrenocortical cancer (ACC) cell line SW-13 (AID 1963989); conditions: SW-13 ACC cells viability, CellTiter-Glo, 48 h; activity (max response): hits give low values; also: nearly all actives have a fitted effect of over 65% in size
How it was run: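 Luminescent ATP read-out (CellTiter-Glo, 20 min at room temperature) measured metabolically competent SW-13 cells after 48 h compound treatment. Final concentrations spanned up to 46 uM; bortezomib served as positive control.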

[11] = Cellular viability qHTS for adrenocortical cancer (ACC) cell line NCI-H295R (AID 1963990); conditions: CellTiter-Glo ATP luminescence, 48 h; series mostly up to 46.1 µM; also: nearly all actives have a fitted effect of over 60% in size
How it was run: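 IC50 and maximal efficacy derive from four-parameter logistic modelling of titration curves, with reads scaled between DMSO-only wells (0%) and doxorubicin hydrochloride (100% inhibition). Compounds spanned up to 46 uM over 48 h.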
Potency is read from the fitted curve at half-maximal effect.

SMILES | Potency [1] | Potency [2] | Potency [3] | Potency [4] | Potency [5] | Potency [6] | Potency [7] | Potency [8] | Potency [9] | Potency [10] | Potency [11]
CCOC(=O)N[C@@H]1CC[C@@H]2[C@@H](C1)C[C@H]1C(=O)O[C@H](C)[C@H]1[C@@H]2C=Cc1ccc(-c2cccc(F)c2)cn1 | inconclusive: 37.2 µM [cytotoxic, single point] | inconclusive: 33.2 µM [cytotoxic, single point] | inconclusive: 37.2 µM [cytotoxic, single point] | inconclusive: 29.6 µM [cytotoxic, single point] | inconclusive: 26.4 µM [cytotoxic, single point] | inconclusive: 23.5 µM [cytotoxic, single point] | inconclusive: 29.6 µM [cytotoxic, single point] | – | – | – | –
C[C@H](NCc1ccc(OCc2cccc(F)c2)cc1)C(N)=O | inconclusive: 23.5 µM [cytotoxic, single point] | inconclusive: 18.7 µM [cytotoxic, partial curve] | active: 20.9 µM | inconclusive: 18.7 µM [cytotoxic, partial curve] | inconclusive: 18.7 µM [cytotoxic, partial curve] | active: 0.469 µM | – | – | – | – | –
COc1cc(O)c2c(c1)C(=O)c1cc(C)cc(O)c1C2=O | inconclusive: 14.4 µM [cytotoxic, partial curve] | inconclusive: 11.5 µM [cytotoxic, partial curve] | active: 9.11 µM | – | inconclusive: 12.9 µM [cytotoxic, single point] | – | active: 4.07 µM | inconclusive: 16.2 µM [cytotoxic, single point] | – | – | –
Nc1ncnc2c1nc(Cl)n2[C@@H]1O[C@H](CO)[C@@H](O)[C@@H]1O | inconclusive: 33.2 µM [cytotoxic, single point] | inconclusive: 0.187 µM [cytotoxic, full curve, poor fit] | inconclusive: 20.9 µM [cytotoxic, partial curve, poor fit] | inconclusive: 23.5 µM [cytotoxic, single point] | inconclusive: 29.6 µM [cytotoxic, single point] | – | – | inconclusive: 23.5 µM [cytotoxic, single point] | active: 8.33 µM | inconclusive: 31.6 µM [cytotoxic, partial curve, poor fit] | inconclusive: 35.5 µM [cytotoxic, single point]
c1ccc2c(-c3cnn4cc(-c5ccc(N6CCNCC6)cc5)cnc34)ccnc2c1 | inconclusive: 0.0042 µM [rising, full curve] | inconclusive: 0.0074 µM [rising, full curve] | inconclusive: 0.0053 µM [rising, full curve] | inconclusive: 29.6 µM [cytotoxic, partial curve, poor fit] | inconclusive: 20.9 µM [cytotoxic, partial curve, poor fit] | – | – | inconclusive: 29.6 µM [cytotoxic, single point] | inconclusive: 11.8 µM [cytotoxic, partial curve, poor fit] | active: 3.98 µM | –
CCC[C@H](NC(=O)C(C#N)=Cc1cccc(Br)n1)c1ccccc1 | inconclusive: 37.2 µM [cytotoxic, single point] | inconclusive: 29.6 µM [cytotoxic, single point] | active: 20.9 µM | – | inconclusive: 29.6 µM [cytotoxic, single point] | inconclusive: 26.4 µM [cytotoxic, partial curve, poor fit] | inconclusive: 16.6 µM [cytotoxic, partial curve, poor fit] | inconclusive: 33.2 µM [cytotoxic, single point] | inconclusive: 20.9 µM [cytotoxic, partial curve, poor fit] | – | –
CCOC(=O)N1CCN([N+]([O-])=NOc2ccc([N+](=O)[O-])cc2C#N)CC1 | active: 3.32 µM | active: 2.96 µM | inconclusive: 2.64 µM [cytotoxic, full curve] | – | – | – | active: 1.05 µM | active: 1.05 µM | active: 1.05 µM | – | –
Cc1c[nH]c(C=C2C(=O)Nc3ccccc32)c1CCC(=O)O | inconclusive: 9.35 µM [cytotoxic, full curve] | inconclusive: 16.6 µM [cytotoxic, partial curve] | inconclusive: 13.2 µM [cytotoxic, partial curve] | inconclusive: 1.48 µM [cytotoxic, full curve] | inconclusive: 1.87 µM [cytotoxic, full curve] | – | inconclusive: 0.469 µM [cytotoxic, full curve] | – | inconclusive: 0.418 µM [cytotoxic, full curve] | – | –
CON=C(C(=O)N[C@@H]1C(=O)N2C(C(=O)OCOC(=O)C(C)(C)C)=C(C=Cc3scnc3C)CS[C@H]12)c1csc(N)n1 | inconclusive: 20.9 µM [cytotoxic, partial curve] | inconclusive: 16.6 µM [cytotoxic, partial curve] | inconclusive: 18.7 µM [cytotoxic, partial curve] | active: 16.6 µM | active: 14.8 µM | – | active: 9.35 µM | – | inconclusive: 10.5 µM [cytotoxic, full curve, poor fit] | – | –
NC(=O)c1noc([C@H](CCCC2CCCCC2)CC(=O)NO)n1 | active: 16.6 µM | active: 23.5 µM | active: 18.7 µM | – | active: 18.7 µM | – | active: 16.6 µM | active: 23.5 µM | – | inconclusive: 35.5 µM [cytotoxic, single point] | inconclusive: 3.16 µM [cytotoxic, full curve, poor fit]
O=C(NC1CCNCC1)c1[nH]ncc1NC(=O)c1c(Cl)cccc1Cl | active: 1.32 µM | active: 1.18 µM | active: 1.18 µM | active: 2.35 µM | active: 1.48 µM | – | – | – | – | – | –
CN(C)C(=N)N=C(N)N | inconclusive: 23.5 µM [cytotoxic, single point] | inconclusive: 23.5 µM [cytotoxic, single point] | inconclusive: 9.35 µM [cytotoxic, partial curve] | inconclusive: 37.2 µM [cytotoxic, single point] | – | inconclusive: 16.6 µM [cytotoxic, partial curve, poor fit] | – | active: 26.4 µM | inconclusive: 18.7 µM [cytotoxic, partial curve] | – | –
CC(C)(O)Cn1c(NC(=O)c2ccc(-c3cn[nH]c3)s2)nc2cc(CN3CCOCC3)ccc21 | active: 4.18 µM | active: 4.18 µM | active: 2.96 µM | active: 2.35 µM | active: 2.96 µM | – | – | – | – | – | –
COc1cc(Cl)cn2c(-c3cccc(NC4CNC4)n3)cnc12 | inactive | inactive | inactive | – | – | inconclusive: 11.8 µM [cytotoxic, partial curve, poor fit] | – | inactive | inactive | – | –
CN[C@H]1[C@@H](O[C@@H]2[C@H](O[C@@H]3[C@@H](O)[C@@H](O)[C@@H](N=C(N)N)[C@@H](O)[C@@H]3N=C(N)N)O[C@H](C)[C@@]2(O)C=O)O[C@@H](CO)[C@@H](O)[C@H]1O | inconclusive: 9.45 µM [cytotoxic, single point] | inconclusive: 7.51 µM [cytotoxic, partial curve] | inconclusive: 4.74 µM [cytotoxic, partial curve] | inactive | inactive | inactive | – | – | – | – | –
CC(C)(O)CNc1nc(Nc2ccnc(C(F)(F)F)c2)nc(-c2cccc(C(F)(F)F)n2)n1 | inconclusive: 2.95 µM [cytotoxic, full curve] | inconclusive: 2.95 µM [cytotoxic, full curve] | inconclusive: 9.33 µM [cytotoxic, partial curve, poor fit] | – | – | inconclusive: 5.88 µM [cytotoxic, full curve] | inconclusive: 2.34 µM [cytotoxic, full curve] | active: 2.95 µM | – | inconclusive: 28.2 µM [cytotoxic, partial curve, poor fit] | inconclusive: 28.2 µM [cytotoxic, partial curve]
Oc1ccc(C=Cc2cc(O)cc(O)c2)cc1 | inconclusive: 37.2 µM [cytotoxic, single point] | inconclusive: 23.5 µM [cytotoxic, partial curve] | active: 14.8 µM | – | inconclusive: 26.4 µM [cytotoxic, single point] | inconclusive: 26.4 µM [cytotoxic, single point] | active: 11.8 µM | inconclusive: 37.2 µM [cytotoxic, single point] | – | – | –
CCC(=O)OCC(=O)[C@@]1(OC(=O)CC)[C@@H](C)C[C@@H]2[C@H]3CCC4=CC(=O)C=C[C@]4(C)[C@@]3(F)[C@@H](O)C[C@@]21C | active: 7.43 µM | active: 5.9 µM | active: 1.66 µM | active: 2.35 µM | active: 4.69 µM | inconclusive: 13.2 µM [cytotoxic, partial curve] | inconclusive: 1.32 µM [cytotoxic, partial curve] | – | inconclusive: 0.833 µM [cytotoxic, partial curve] | – | –

An excerpt of these results, with tabs:
SMILES	Potency [1]	Potency [2]	Potency [3]	Potency [4]	Potency [5]	Potency [6]	Potency [7]	Potency [8]	Potency [9]	Potency [10]	Potency [11]
O=C(NC1CCNCC1)c1[nH]ncc1NC(=O)c1c(Cl)cccc1Cl	active: 1.32 µM	active: 1.18 µM	active: 1.18 µM	active: 2.35 µM	active: 1.48 µM	–	–	–	–	–	–
CN(C)C(=N)N=C(N)N	inconclusive: 23.5 µM [cytotoxic, single point]	inconclusive: 23.5 µM [cytotoxic, single point]	inconclusive: 9.35 µM [cytotoxic, partial curve]	inconclusive: 37.2 µM [cytotoxic, single point]	–	inconclusive: 16.6 µM [cytotoxic, partial curve, poor fit]	–	active: 26.4 µM	inconclusive: 18.7 µM [cytotoxic, partial curve]	–	–
